According to article doi:10.1101/2022.11.02.514969:
No constants are given. Whether binding was seen depends on the method and setting. In cells and extracts the contact can be indirect. Binding calls can cover weak binding; strength is not graded here.

T1: FANCA (transfected 293T cells) (UniProt O15360)
T1 sequence: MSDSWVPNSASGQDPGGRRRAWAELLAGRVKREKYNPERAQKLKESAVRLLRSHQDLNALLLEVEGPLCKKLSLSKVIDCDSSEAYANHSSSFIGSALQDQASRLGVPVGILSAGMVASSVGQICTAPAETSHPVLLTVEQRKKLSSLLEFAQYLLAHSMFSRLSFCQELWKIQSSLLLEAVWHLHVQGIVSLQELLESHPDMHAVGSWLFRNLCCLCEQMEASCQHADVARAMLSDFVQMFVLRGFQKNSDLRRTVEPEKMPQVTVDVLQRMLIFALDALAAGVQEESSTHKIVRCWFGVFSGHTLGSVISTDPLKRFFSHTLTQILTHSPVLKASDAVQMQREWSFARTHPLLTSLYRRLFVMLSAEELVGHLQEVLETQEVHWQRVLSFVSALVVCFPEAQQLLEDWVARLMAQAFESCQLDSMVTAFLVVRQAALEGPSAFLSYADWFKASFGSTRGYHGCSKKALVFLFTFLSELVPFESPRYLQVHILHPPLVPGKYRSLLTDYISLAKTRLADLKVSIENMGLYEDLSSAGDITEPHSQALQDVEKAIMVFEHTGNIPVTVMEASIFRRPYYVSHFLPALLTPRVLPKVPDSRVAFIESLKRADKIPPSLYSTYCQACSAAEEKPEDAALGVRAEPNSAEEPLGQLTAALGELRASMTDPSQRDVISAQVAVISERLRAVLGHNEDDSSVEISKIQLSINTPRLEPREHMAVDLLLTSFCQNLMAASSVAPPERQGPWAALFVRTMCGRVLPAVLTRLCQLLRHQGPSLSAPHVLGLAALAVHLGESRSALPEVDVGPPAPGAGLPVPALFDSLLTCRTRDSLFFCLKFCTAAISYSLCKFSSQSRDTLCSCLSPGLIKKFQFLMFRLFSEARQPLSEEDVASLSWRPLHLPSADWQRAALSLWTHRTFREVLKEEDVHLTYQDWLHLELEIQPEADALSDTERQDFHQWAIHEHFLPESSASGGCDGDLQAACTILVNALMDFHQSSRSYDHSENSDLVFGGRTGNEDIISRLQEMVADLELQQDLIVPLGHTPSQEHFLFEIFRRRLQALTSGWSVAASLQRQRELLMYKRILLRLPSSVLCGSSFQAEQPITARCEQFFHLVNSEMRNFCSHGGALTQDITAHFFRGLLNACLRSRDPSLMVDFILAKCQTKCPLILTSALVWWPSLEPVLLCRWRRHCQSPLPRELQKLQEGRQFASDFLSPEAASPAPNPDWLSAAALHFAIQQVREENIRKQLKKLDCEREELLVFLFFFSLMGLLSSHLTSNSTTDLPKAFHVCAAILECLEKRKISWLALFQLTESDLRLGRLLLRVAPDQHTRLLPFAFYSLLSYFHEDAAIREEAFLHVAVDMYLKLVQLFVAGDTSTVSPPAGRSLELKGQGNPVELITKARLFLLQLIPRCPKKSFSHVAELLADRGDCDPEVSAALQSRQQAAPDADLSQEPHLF


Assays:
[1] = biological target: T1, FANCA (transfected 293T cells); test: co-IP
[2] = biological target: HA-tagged wt IRIS (hairpin-resistant, in HME cells) (human); test: co-IP

Row | binding [1] | binding [2] | Molecule
1 | binds |  | wt IRIS (transfected 293T cells) (human)
2 |  | binds | FANCL (protein, UniProt Q9NW38 1-375) MAVTEASLLRQCPLLLPQNRSKTVYEGFISAQGRDFHLRIVLPEDLQLKNARLLCSWQLRTILSGYHRIVQQRMQHSPDLMSFMMELKMLLEVALKNRQELYALPPPPQFYSSLIEEIGTLGWDKLVYADTCFSTIKLKAEDASGREHLITLKLKAKYPAESPDYFVDFPVPFCASWTPQSSLISIYSQFLAAIESLKAFWDVMDEIDEKTWVLEPEKPPRSATARRIALGNNVSINIEVDPRHPTMLPECFFLGADHVVKPLGIKLSRNIHLWDPENSVLQNLKDVLEIDFPARAILEKSDFTMDCGICYAYQLDGTIPDQVCDNSQCGQPFHQICLYEWLRGLLTSRQSFNIIFGECPYCSKPITLKMSGRKH
3 |  | binds | FANCA (endogenous) (protein, UniProt O15360 1-1455) MSDSWVPNSASGQDPGGRRRAWAELLAGRVKREKYNPERAQKLKESAVRLLRSHQDLNALLLEVEGPLCKKLSLSKVIDCDSSEAYANHSSSFIGSALQDQASRLGVPVGILSAGMVASSVGQICTAPAETSHPVLLTVEQRKKLSSLLEFAQYLLAHSMFSRLSFCQELWKIQSSLLLEAVWHLHVQGIVSLQELLESHPDMHAVGSWLFRNLCCLCEQMEASCQHADVARAMLSDFVQMFVLRGFQKNSDLRRTVEPEKMPQVTVDVLQRMLIFALDALAAGVQEESSTHKIVRCWFGVFSGHTLGSVISTDPLKRFFSHTLTQILTHSPVLKASDAVQMQREWSFARTHPLLTSLYRRLFVMLSAEELVGHLQEVLETQEVHWQRVLSFVSALVVCFPEAQQLLEDWVARLMAQAFESCQLDSMVTAFLVVRQAALEGPSAFLSYADWFKASFGSTRGYHGCSKKALVFLFTFLSELVPFESPRYLQVHILHPPLVPGKYRSLLTDYISLAKTRLADLKVSIENMGLYEDLSSAGDITEPHSQALQDVEKAIMVFEHTGNIPVTVMEASIFRRPYYVSHFLPALLTPRVLPKVPDSRVAFIESLKRADKIPPSLYSTYCQACSAAEEKPEDAALGVRAEPNSAEEPLGQLTAALGELRASMTDPSQRDVISAQVAVISERLRAVLGHNEDDSSVEISKIQLSINTPRLEPREHMAVDLLLTSFCQNLMAASSVAPPERQGPWAALFVRTMCGRVLPAVLTRLCQLLRHQGPSLSAPHVLGLAALAVHLGESRSALPEVDVGPPAPGAGLPVPALFDSLLTCRTRDSLFFCLKFCTAAISYSLCKFSSQSRDTLCSCLSPGLIKKFQFLMFRLFSEARQPLSEEDVASLSWRPLHLPSADWQRAALSLWTHRTFREVLKEEDVHLTYQDWLHLELEIQPEADALSDTERQDFHQWAIHEHFLPESSASGGCDGDLQAACTILVNALMDFHQSSRSYDHSENSDLVFGGRTGNEDIISRLQEMVADLELQQDLIVPLGHTPSQEHFLFEIFRRRLQALTSGWSVAASLQRQRELLMYKRILLRLPSSVLCGSSFQAEQPITARCEQFFHLVNSEMRNFCSHGGALTQDITAHFFRGLLNACLRSRDPSLMVDFILAKCQTKCPLILTSALVWWPSLEPVLLCRWRRHCQSPLPRELQKLQEGRQFASDFLSPEAASPAPNPDWLSAAALHFAIQQVREENIRKQLKKLDCEREELLVFLFFFSLMGLLSSHLTSNSTTDLPKAFHVCAAILECLEKRKISWLALFQLTESDLRLGRLLLRVAPDQHTRLLPFAFYSLLSYFHEDAAIREEAFLHVAVDMYLKLVQLFVAGDTSTVSPPAGRSLELKGQGNPVELITKARLFLLQLIPRCPKKSFSHVAELLADRGDCDPEVSAALQSRQQAAPDADLSQEPHLF
